Test [1] concerns the target HA-OTULIN N terminus (N) (UniProt Q96BN8). In words: co-IP; HEK293T cotransfected with two differently tagged OTULIN constructs (Myc, HA, GFP), 48 h; IP anti-HA or anti-Myc; in Fig. 3H also after Etop (10 μM, 2 h) or CPT (10 μM).
Test [2] deals with HA-OTULIN C17/47A (UniProt Q96BN8). In words: non-reducing SDS-PAGE and immunoblot; OTULIN-KO MDA-MB-231 reconstituted with OTULIN constructs (48 h), Dox (2 μg/mL, 2 h); lysates blotted without DTT or 2-ME; n = 3 independent experiments. (In general: Immunoblotting shows a protein as a band on a membrane.)
Test [3] addresses Myc-OTULIN (UniProt Q96BN8). Briefly: co-IP; HEK293T cotransfected with two differently tagged OTULIN constructs (Myc, HA, GFP), 48 h; IP anti-HA or anti-Myc; in Fig. 3H also after Etop (10 μM, 2 h) or CPT (10 μM).

Protein sequences, listed by entry. Tags and fused reporters are not part of them. Lines headed by an entry give the natural chain unless they say otherwise; changes in a name come on top. Chains listed by the source or under a name are the forms on record and can include a tag or linker. Residues count along the entry.
UniProt Q96BN8: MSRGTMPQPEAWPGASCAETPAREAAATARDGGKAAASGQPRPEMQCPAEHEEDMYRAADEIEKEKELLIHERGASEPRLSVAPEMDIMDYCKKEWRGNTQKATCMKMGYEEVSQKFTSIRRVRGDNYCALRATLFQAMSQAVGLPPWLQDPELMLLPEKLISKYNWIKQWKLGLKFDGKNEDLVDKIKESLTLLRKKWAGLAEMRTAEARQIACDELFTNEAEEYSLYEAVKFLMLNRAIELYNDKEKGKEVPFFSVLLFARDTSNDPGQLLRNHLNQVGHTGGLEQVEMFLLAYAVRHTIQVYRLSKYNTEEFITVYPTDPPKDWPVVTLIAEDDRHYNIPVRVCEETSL
HA-OTULIN N terminus (N): residues 1-80 of Q96BN8
HA-OTULIN C17/47A (Q96BN8, form named): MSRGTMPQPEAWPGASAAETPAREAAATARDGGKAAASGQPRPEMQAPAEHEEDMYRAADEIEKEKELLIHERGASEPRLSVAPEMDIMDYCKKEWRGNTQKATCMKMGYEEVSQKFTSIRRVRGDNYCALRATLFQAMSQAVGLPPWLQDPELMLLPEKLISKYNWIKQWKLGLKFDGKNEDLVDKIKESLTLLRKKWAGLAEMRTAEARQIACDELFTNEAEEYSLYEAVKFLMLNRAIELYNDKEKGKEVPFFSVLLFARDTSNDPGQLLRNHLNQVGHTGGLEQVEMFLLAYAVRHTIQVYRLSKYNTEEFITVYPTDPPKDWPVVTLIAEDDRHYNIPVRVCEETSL
HA-OTULIN K64/66R (Q96BN8, form named): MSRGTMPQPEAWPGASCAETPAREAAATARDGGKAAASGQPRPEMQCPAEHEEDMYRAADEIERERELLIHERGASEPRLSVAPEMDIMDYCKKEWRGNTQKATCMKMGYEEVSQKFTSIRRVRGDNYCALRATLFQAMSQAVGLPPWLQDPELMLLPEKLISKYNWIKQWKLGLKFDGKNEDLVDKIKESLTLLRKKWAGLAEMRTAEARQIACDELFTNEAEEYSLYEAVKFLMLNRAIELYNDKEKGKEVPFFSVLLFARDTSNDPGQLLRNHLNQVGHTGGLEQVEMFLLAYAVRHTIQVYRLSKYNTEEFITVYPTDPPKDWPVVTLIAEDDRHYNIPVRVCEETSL

Results are given in words; binding and its absence hold for the method and conditions named. For some assays here: Binding seen in cells or lysates may run through a third protein. Some binding calls cover weakened binding; strength is not graded here.

As to “GFP-OTULIN (from UniProt Q96BN8 1-352) (enzyme)”, the binding result in test [1] was “binds”. As to “HA-OTULIN C17/47A (from UniProt Q96BN8 1-352) (enzyme)”, in test [2], the binding result was “no binding”. For the substance “HA-OTULIN C129S (from UniProt Q96BN8 1-352) (enzyme)”, in test [3], the binding entry is reported as “binds”.

Turning to “HA-OTULIN K64/66R (from UniProt Q96BN8 1-352) (enzyme)”, the binding result in test [3] is “binds”. Still for that read-out and setting: in the case of “HA-OTULIN Y56F (from UniProt Q96BN8 1-352) (enzyme)” it was “binds”.

Values taken from paper PMC9388121.
